Source: PubChem BioAssay AID1671190 (National Center for Advancing Translational Sciences (NCATS), 2021)
Values joined by “and” are separate entries in the source; they are usually repeats but may differ in a detail not shown here. Equal values may be shown once. Out of some 580,000 compounds screened, about 6,100 (1.1%) were called active. The inconclusive results got no clear call from the source; some entries with a clear call stand among them for comparison. Calls follow the shape of the dose curve; as a rule, active = well fitted inhibition curve with a large enough effect; inconclusive = small, poorly fitted or top-dose-only effect, or another doubt; inactive = no such curve, though single readings can be large or run the other way. Potencies beside an inconclusive call are fits to weak or partial responses and may not hold up.

By UniProt entry, the sequences of proteins in these tests, tags left out.
UniProt P18054, whole entry, looked up: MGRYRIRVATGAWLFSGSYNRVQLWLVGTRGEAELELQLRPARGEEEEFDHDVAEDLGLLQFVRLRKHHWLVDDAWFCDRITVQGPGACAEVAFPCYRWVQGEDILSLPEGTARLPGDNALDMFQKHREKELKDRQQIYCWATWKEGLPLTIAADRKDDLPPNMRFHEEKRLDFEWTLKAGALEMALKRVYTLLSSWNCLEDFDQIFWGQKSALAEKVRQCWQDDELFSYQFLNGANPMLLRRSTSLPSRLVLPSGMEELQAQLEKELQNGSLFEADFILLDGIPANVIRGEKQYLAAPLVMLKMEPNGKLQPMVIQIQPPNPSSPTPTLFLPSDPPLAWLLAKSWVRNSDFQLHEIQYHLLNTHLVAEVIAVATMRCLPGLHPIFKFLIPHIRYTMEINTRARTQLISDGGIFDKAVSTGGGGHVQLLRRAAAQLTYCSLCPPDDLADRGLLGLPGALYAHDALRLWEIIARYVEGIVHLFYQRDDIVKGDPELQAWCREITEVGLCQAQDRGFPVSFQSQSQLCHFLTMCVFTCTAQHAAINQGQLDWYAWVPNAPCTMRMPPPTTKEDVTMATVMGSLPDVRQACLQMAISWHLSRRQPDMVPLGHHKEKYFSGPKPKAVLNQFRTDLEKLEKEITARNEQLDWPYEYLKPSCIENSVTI

Biological target: Polyunsaturated fatty acid lipoxygenase ALOX12 (Homo sapiens) (UniProt P18054)
Assay: Primary qHTS assay for inhibitors of human arachidonate 12S-lipoxygenase (ALOX12): Round 2
Settings: purified 12hLO, xylenol orange hydroperoxide absorbance; activity change, negative = inhibition: at 108 µM (top of the series) unless noted
How it was run: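 Purified human 12hLO at 150 nM in 25 mM Hepes, 0.01% Triton X-100, pH 7.0, preincubated 15 min at room temperature with compound. Reaction started with 40 uM arachidonic acid, 30 min at room temperature. Hydroperoxide measured by Fe-xylenol orange, 573/405 nm absorbance ratio.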
% is scaled to controls: 0 for no effect and ±100 for the full control effect; potency is read from the fitted curve at half-maximal effect.

**Q.** For COCCCNC(=O)c1ccc(-c2c(C)noc2C)c2ccoc12, which “activity change, negative = inhibition” value is on record?
**A.** inactive: 8.36%

**Q.** How did the Potency turn out when O=C(O)Cc1ccc(N2C(=O)C(=O)/C(=C(/O)c3ccccc3Cl)C2c2ccccc2F)cc1 (stereo not drawn) was run?
**A.** inconclusive: 12.6 µM [inhibitor, partial curve, poor fit]

**Q.** For COc1ccc(C(=O)/C=C/c2ccc(OCc3ccccc3)cc2)cc1CSCC(=O)O, which “activity change, negative = inhibition” value is on record?
**A.** inactive: 0%

**Q.** For O=c1[nH]c(CN2CCN(c3ccccn3)CC2)nc2c(Br)cc(Br)cc12, which Potency is on record?
**A.** inconclusive: 39.8 µM [inhibitor, single point]

**Q.** Which Potency does the source give for CS(=O)(=O)C1=C(O)C(=O)N(CCCC(=O)O)C1c1ccccc1F (stereo not drawn) here?
**A.** inconclusive: 28.2 µM [inhibitor, partial curve, poor fit]

**Q.** CC(C)[C@H](NC(=O)c1cccc(CN(Cc2ccccc2)C(=O)c2ccccc2)c1)C(=O)O was tested. Which Potency did it give?
**A.** inconclusive: 89.1 µM [inhibitor, partial curve, poor fit]

**Q.** How did the Potency turn out when O=C(Cn1ccc(=O)[nH]c1=O)Nc1ccc(O)c([N+](=O)[O-])c1 was run?
**A.** inconclusive: 0.355 µM [inhibitor, full curve, poor fit]

**Q.** With CCOC(=O)N1CCN(CC(O)COc2ccc(C)c(C)c2)CC1 (stereo not drawn) as the compound, how does the Potency read?
**A.** inconclusive: 39.8 µM [inhibitor, partial curve, poor fit]

**Q.** Cc1ccc2c(c1)C(N1CCCC1=O)CC(c1ccco1)N2 (stereo not drawn) was tested. Which Potency did it give?
**A.** inconclusive: 25.1 µM [inhibitor, partial curve, poor fit]

**Q.** O=C(CN1C(=O)S/C(=C\c2ccccc2Cl)C1=O)NC1C=CS(=O)(=O)C1 (stereo not drawn) was tested. Which Potency did it give?
**A.** inconclusive: 100 µM [inhibitor, single point]

**Q.** With COc1cccc(C2=NN(S(=O)(=O)c3ccccc3)C(c3ccc4nccnc4c3)C2)c1 (stereo not drawn) as the compound, how does the “activity change, negative = inhibition” value read?
**A.** inactive: 18.3%

**Q.** With CCC(C(=O)Nc1ccc(N(C)C)cc1)n1cnc2ccccc2c1=O (stereo not drawn) as the compound, how does the Potency read?
**A.** inconclusive: 89.1 µM [inhibitor, partial curve, poor fit]

**Q.** With O=C1CSC(=S)N1N=Cc1ccc2c(c1)OCO2 as the compound, how does the Potency read?
**A.** inconclusive: 35.5 µM [inhibitor, partial curve]

**Q.** CC(C)C(NC(=O)/C=C/c1ccc(Cl)cc1)C(C)C was tested. Which “activity change, negative = inhibition” value did it give?
**A.** inactive: 13.2%

**Q.** For Nc1ccc(N2CCOCC2)c2nonc12, which Potency is on record?
**A.** active: 39.8 µM

**Q.** For COc1ccc(Nc2nc3cc(-c4ccccc4C)sc3c(=O)n2C)cc1OC, which Potency is on record?
**A.** active: 35.5 µM

**Q.** For Cc1cc([N+](=O)[O-])ccc1-c1ccc(C2Nc3ccccc3C(=O)N2O)o1 (stereo not drawn), which Potency is on record?
**A.** inconclusive: 44.7 µM [inhibitor, partial curve, poor fit]

**Q.** For COCCSc1ccccc1C(=O)Nc1cc(C)on1, which Potency is on record?
**A.** inconclusive: 35.5 µM [inhibitor, full curve, poor fit]

**Q.** With CC(C)=CC[C@@H](O)C1=CC(=O)c2c(O)ccc(O)c2C1=O as the compound, how does the Potency read?
**A.** active: 2.17 µM

**Q.** With N#CC1=C2SCN(Cc3ccccc3)CN2C(=O)CC1c1cccc2ccccc12 (stereo not drawn) as the compound, how does the Potency read?
**A.** inconclusive: 5.01 µM [inhibitor, full curve, poor fit]

**Q.** Which Potency does the source give for COc1ccc(C2CC(c3ccccc3)=NN2C(=O)c2cccs2)cc1 (stereo not drawn) here?
**A.** inconclusive: 50.1 µM [inhibitor, partial curve, poor fit]

**Q.** With COc1ccc2c(CC(=O)Nc3ccc4nc(N5CCOCC5)sc4c3)coc2c1 as the compound, how does the Potency read?
**A.** inconclusive: 89.1 µM [inhibitor, single point]

**Q.** Which Potency does the source give for COCCn1c(SCC(=O)c2ccc3c(c2)OCCO3)nnc1-c1ccco1 here?
**A.** inconclusive: 100 µM [inhibitor, single point]

**Q.** CCOc1ccccc1N1CCN(Cc2cc(=O)oc3ccc4ccccc4c23)CC1 was tested. Which Potency did it give?
**A.** inconclusive: 28.2 µM [inhibitor, partial curve]

**Q.** COc1ccc(S(=O)(=O)Nc2nc3ccccc3nc2Nc2ccc(C)c(C)c2)cc1 was tested. Which “activity change, negative = inhibition” value did it give?
**A.** inactive: 19.2%

**Q.** For O=C1C(=O)N(C2CCCC2)C(=O)N1Cc1cc(F)cc2cccnc12, which Potency is on record?
**A.** inconclusive: 100 µM [inhibitor, single point]

**Q.** With O=C(Nc1cccc(-c2nnnn2C2CC2)c1)C1CCCC1 as the compound, how does the Potency read?
**A.** inconclusive: 89.1 µM [inhibitor, single point]

**Q.** For CC(C)C[C@@H](C(=O)NC1CCN(Cc2ccccc2)CC1)N1C(=O)N2CCc3c([nH]c4ccccc34)[C@@]2(C)C1=O, which Potency is on record?
**A.** inconclusive: 79.4 µM [inhibitor, partial curve, poor fit]

**Q.** For COCc1nc(C2CCCN(C(=O)c3ccc(OC)cc3)C2)no1 (stereo not drawn), which “activity change, negative = inhibition” value is on record?
**A.** inactive: 38.6%

**Q.** O=c1[nH]cnc2scc(-c3ccc(Cl)cc3)c12 was tested. Which Potency did it give?
**A.** inconclusive: 56.2 µM [inhibitor, partial curve, poor fit]

**Q.** Which Potency does the source give for CCCCN(C=O)c1c(CC)nc2c(OCc3ccc(Cl)cc3Cl)cccn12 here?
**A.** inconclusive: 100 µM [inhibitor, partial curve, poor fit]

**Q.** With COC(=O)c1ccc(/C=N\N2CCN(Cc3ccc(C)cc3)CC2)cc1 as the compound, how does the “activity change, negative = inhibition” value read?
**A.** inactive: -6.02%

**Q.** For COc1ccc(Br)cc1/C=C(\C(=O)O)c1ccc(S(=O)(=O)N2CCCC2)s1, which Potency is on record?
**A.** inconclusive: 50.1 µM [inhibitor, partial curve, poor fit]

**Q.** With Cc1nc2ccc(S(=O)(=O)NCC(=O)O)cc2s1 as the compound, how does the Potency read?
**A.** inconclusive: 12.6 µM [inhibitor, partial curve, poor fit]

**Q.** Which “activity change, negative = inhibition” value does the source give for Cc1ccc2c(c1)CCCN2C(=O)c1cnc2c(cnn2C(C)C)c1 here?
**A.** inactive: -7.86%

**Q.** For Cc1cccc(NC(=O)c2ccc(NCC3CCCO3)c([N+](=O)[O-])c2)c1 (stereo not drawn), which “activity change, negative = inhibition” value is on record?
**A.** inactive: -7.9%

**Q.** COc1ccc(N2CCN(C(=O)CSc3nnc(C4CC4)n3C3CC3)CC2)cc1 was tested. Which Potency did it give?
**A.** inconclusive: 70.8 µM [inhibitor, single point]

**Q.** With CC(C)=CCC/C(C)=C/CNC(=O)CC1C[C@H](C(=O)N(C(C)C)C(C)C)[C@@]2(C)c3[nH]c4ccccc4c3CCN2C1=O (stereo partly drawn) as the compound, how does the Potency read?
**A.** inconclusive: 100 µM [inhibitor, single point]

**Q.** With CS(=O)(=O)C1=NSC2=NC(=O)/C(=C\c3ccc(OS(=O)(=O)c4ccccc4)cc3)C(=N)N21 as the compound, how does the Potency read?
**A.** inconclusive: 44.7 µM [inhibitor, partial curve, poor fit]

**Q.** For Clc1ccc(NCCN2CCCC2)cc1, which Potency is on record?
**A.** inconclusive: 22.4 µM [inhibitor, full curve]

**Q.** Fc1ccccc1Cn1cc(C(=S)N2CCOCC2)c2ccccc21 was tested. Which Potency did it give?
**A.** inconclusive: 56.2 µM [inhibitor, partial curve, poor fit]

**Q.** How did the Potency turn out when N#Cc1nc(COc2cccc(Cl)c2)oc1N1CCCCC1 was run?
**A.** inconclusive: 28.2 µM [inhibitor, partial curve, poor fit]

**Q.** With CCN(C(=O)COC(=O)c1nc2nc(C)cc(C)n2n1)C1CCS(=O)(=O)C1 (stereo not drawn) as the compound, how does the Potency read?
**A.** inconclusive: 44.7 µM [inhibitor, partial curve, poor fit] and inconclusive: 112 µM [inhibitor, partial curve, poor fit]

**Q.** How did the Potency turn out when CCCNC(=O)c1ccccc1NC(=O)Cn1cnc2c1c(=O)n(C)c(=O)n2C was run?
**A.** inconclusive: 44.7 µM [inhibitor, partial curve, poor fit]

**Q.** With CCn1c(C)c(C(C)=O)c(N2CCN(c3ccc(OC)cc3)CC2)nc1=S as the compound, how does the Potency read?
**A.** inconclusive: 35.5 µM [inhibitor, partial curve, poor fit]

**Q.** Cc1nc(NS(=O)(=O)c2ccccc2C)c2c3c(sc2n1)CCC3 was tested. Which “activity change, negative = inhibition” value did it give?
**A.** inactive: 7.55%

**Q.** Cc1nnc2ccc(-c3cccc(NS(=O)(=O)c4ccccc4Cl)c3)nn12 was tested. Which “activity change, negative = inhibition” value did it give?
**A.** inactive: -2.01%

**Q.** COCCS(=O)(=O)c1ncc(CN(C)C(C)c2ccon2)n1Cc1ccccc1 (stereo not drawn) was tested. Which Potency did it give?
**A.** inconclusive: 4.47 µM [inhibitor, full curve]

**Q.** Which Potency does the source give for Cc1ccc(NC(=O)c2cc(S(=O)(=O)NC3CCCCCC3)ccc2F)cc1F here?
**A.** inconclusive: 89.1 µM [inhibitor, partial curve, poor fit]

**Q.** With FC(F)Sc1ccc(N=C2NN=C(c3ccc4c(c3)OCCO4)CS2)cc1 as the compound, how does the Potency read?
**A.** inconclusive: 100 µM [inhibitor, single point]

**Q.** Which Potency does the source give for CC[n+]1c(/C=C/C=C/N(C(C)=O)c2ccccc2)sc2cc(OC)ccc21 here?
**A.** inconclusive: 11.2 µM [inhibitor, partial curve, poor fit]

**Q.** For CCOc1ccc(C(=O)NC(=S)Nc2ccc(N3CCOCC3)c(Cl)c2)cc1[N+](=O)[O-], which Potency is on record?
**A.** active: 14.1 µM

**Q.** CCOc1ccc(/C=N/Nc2ccccc2)cc1 was tested. Which Potency did it give?
**A.** inconclusive: 8.91 µM [inhibitor, partial curve]

**Q.** For CC(C)n1cc2cc(C(=O)NC3CCCCCC3)sc2c1, which Potency is on record?
**A.** inconclusive: 14.1 µM [inhibitor, full curve]

**Q.** With CC(NC(=O)COc1ccccc1)C(=O)OCC(=O)c1cc2ccccc2o1 (stereo not drawn) as the compound, how does the Potency read?
**A.** inconclusive: 56.2 µM [inhibitor, partial curve, poor fit]

**Q.** Which “activity change, negative = inhibition” value does the source give for O=C(O)CCc1oc2cc(O)ccc2c(=O)c1-c1nc2ccccc2[nH]1 here?
**A.** inactive: -13.3%

**Q.** For CC(C)(C)c1cc(C(=O)NCc2ccc(F)cc2)nn2cccc12, which Potency is on record?
**A.** inconclusive: 100 µM [inhibitor, partial curve, poor fit]

**Q.** Which “activity change, negative = inhibition” value does the source give for Cc1nc(Nc2nc3ccccc3o2)nc2c1CCC2 here?
**A.** inactive: -18.9%

**Q.** How did the “activity change, negative = inhibition” value turn out when CCc1ccccc1NC(=O)CC(C)S(=O)(=O)c1ccc2c(c1)NC(=O)CO2 (stereo not drawn) was run?
**A.** inactive: -19.1%

**Q.** For CCOc1cc(/C=N/Nc2nnc(C)n2N)ccc1O, which Potency is on record?
**A.** inconclusive: 31.6 µM [inhibitor, full curve, poor fit]

**Q.** O=C(CSc1nc2c([nH]c3ccccc32)c(=O)n1-c1ccccc1)NCc1ccc(F)cc1 was tested. Which Potency did it give?
**A.** inconclusive: 56.2 µM [inhibitor, partial curve, poor fit]

**Q.** With CCC(C)Nc1nc(-c2cccc(OC)c2O)nc2ccccc12 (stereo not drawn) as the compound, how does the Potency read?
**A.** inconclusive: 35.5 µM [inhibitor, single point]

**Q.** O=C1Cc2ccccc2C(=O)N1OCc1ccc(Cl)cc1 was tested. Which Potency did it give?
**A.** inconclusive: 39.8 µM [inhibitor, partial curve, poor fit]
